Data published in patent publication US20230235039A1.
Numbering of substitutions follows the chain as printed. No constants are given. Whether binding was seen depends on the method and setting. Binding calls can cover weak binding; strength is not graded here.

B1: single-domain antibody 2B3 (VHH, expressed in E. coli) (VHH)
VHH: QVQLVESGGGSVQAGGSLRLSCAASGNTFSFSTYCMGWFRQSPGKEREGSLATIYDGSTAYAGSVKGRFTISVDNAKNILYLQMNNLKPEDTAMYYCAAAKYCMFWSDPSYWGQGTQVTVSS
B2: single-domain antibody 4B12 (VHH, expressed in E. coli) (VHH, not shown: small tags and cut ends)
VHH: B1 VHH with A14P, I71V, A99S
B3: single-domain antibody 4D5 (VHH, expressed in E. coli) (VHH, not shown: small tags and cut ends)
VHH: B1 VHH with F31T
B4: single-domain antibody 1B8 (VHH, expressed in E. coli) (VHH, not shown: small tags and cut ends)
VHH: QVQLVESGGGSVQAGGSLRLSCAASGITASTSCMGWFRQSPGKEREGSLATIYDGSTSYADSVKGQFTISVDNAKNILYLQMNNLKPEDTAMYYCAAAKYCMFWSHPSYWGQGTQVTVSS
B5: single-domain antibody 1B3 (VHH, expressed in E. coli) (VHH, not shown: small tags and cut ends)
VHH: B4 VHH with Q66R
B6: single-domain antibody 2G6 (VHH, expressed in E. coli) (VHH)
VHH: B4 VHH with A29S, S56N, T57I, Q66R, H106D
B7: single-domain antibody 2F7 (VHH, expressed in E. coli) (VHH)
VHH: B4 VHH with Q66R, E88A
B8: single-domain antibody 4H2 (VHH, expressed in E. coli) (VHH, not shown: small tags and cut ends)
VHH: B4 VHH with G8E, A24V, A29S, S32A, T57I, Q66R, H106D
B9: single-domain antibody 1F4 (VHH, expressed in E. coli) (VHH, not shown: small tags and cut ends)
VHH: QVQLVESGGGSAQAGGSLRLSCAASGNTLDLMAWFRQAPGKEREGVAGIYSSGTTYYADSVKGRFTVSRDNAKNTVYLQMNSLKPEDAAMYYCAAKVSWYGRWYQSETYEYWGQGTQVTVSS
B10: single-domain antibody 4C3 (VHH, expressed in E. coli) (VHH, not shown: small tags and cut ends)
VHH: QVQLVESGGGSVQAGGSLRLSCVASGLTLNDVSMAWFRQAPGKEREEVAGIDIDGLISYADPVKGRFTISKDNAQNTMYLQMNSLKPEDTAMYSCAAVRLYFSSSRNQYKYEGQGTQVTVSS
B11: single-domain antibody 3G12 (VHH, expressed in E. coli) (VHH)
VHH: B10 VHH with P62S, M78L

target: human recombinant IL-5 protein with a histidine tag at carboxyl terminal (human); test: ELISA, IL-5 protein coated on the plate, VHH titrated, anti-HA tag HRP secondary antibody, OD450

binding, binds:
B1
B2
B3
B4
B5
B6
B7
B8
B9
B10
B11
